Measurements reported in PubChem BioAssay AID504784 (Drosophila RNAi Screening Center, 2011).
Aim: 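Genome-wide knock-down for genes giving too much or too little stored lipid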 (primary screen). System: Drosophila Kc167 embryonic cells. Reagent: long dsRNA against Drosophila genes, about 250 ng dsRNA per well. Duration: 4 days. Conditions: cells fed 400 µM oleic acid bound to BSA. Measurement: 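Cells imaged and segmented; ratio of lipid droplet area to nuclear area, log-transformed, then normalised as a B-score over the screen; higher means more stored lipid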. Direction: droplet/nuclear area B-score: higher = more stored lipid (overstorage).
The screen tested about 17,000 reagents; this is an unselected part of those with a known target gene and a result. 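Each column is one replicate's B-score; the combined score over replicates was not deposited, so single values may mislead.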 Reagents against one gene are numbered here. A plus sign joins genes that one reagent is predicted to hit. Not all columns of the deposit are shown.

gene	reagent	droplet/nuclear area B-score, replicate 1	droplet/nuclear area B-score, replicate 2
cac (cacophony)	1	-1.8	-2.69
cac (cacophony)	2	1.54	1.21
CG14071	1	0.511	-0.409
CG18493	1	-0.256	-0.135
Josd (Josephin domain containing)	1	1.5	-0.656
CG6340	1	-2.19	0.00877
CG7631	1	-0.22	1.91
Sbat (Sabbat)	1	1.64	0.375
CG42331	1	0.0552	0.112
CG42331	2	-0.0431	3.2
CG13053	1	0.774	0.0686
Pgant2 (Polypeptide N-Acetylgalactosaminyltransferase 2)	1	-1.41	0.238
Rbp1-like	1	-0.977	-0.647
Rbp1-like	2	1.21	-1.41
CG14471 (retired record)	1	0.522	0.27
CG31751	1	-1.8	-1.05
CG31751	2	-2.41	1.87
CG7059	1	-0.471	-0.932
CG33203	1	1.79	-0.0226
CG33203	2	0.336	-0.00593
CG33203	3	-0.364	-1.15
TotB (Turandot B)	1	-0.909	-0.397
Tsp39D (Tetraspanin 39D)	1	-0.327	-0.562
Atg16 (Autophagy-related 16)	1	-1.1	
Atg16 (Autophagy-related 16)	2	-1.78	2.14
Atg16 (Autophagy-related 16)	3	-1.34	2.02
RpL9 (Ribosomal protein L9)	1	5.86	4.82
CG2218	1	-2.13	-0.344
CG31948	1	0.00184	0.686
Dpck (Dephospho-CoA kinase)	1	1.58	1.36
CG13097	1	-0.918	-1.88
Atac1 (Ada2a-containing complex component 1)	1	-0.122	-0.0153
CG4456 + Hsp22	1	1.16	1.46
CG4456 + Hsp22	2	0.555	-0.233
kst (karst)	1	-1.78	-2.13
Suv3 (Suv3 helicase)	1	-0.979	-0.375
Panx (Panoramix)	1		-1.58
CG15221	1	0.014	0.322
Nph (Nucleophosmin)	1	0.496	-0.225
CG14739	1	-0.0127	-0.653
CR32745 (pseudo)	1	0.294	4.41
CG12025	1	-1.46	0.173
CG13442	1	-0.77	-1.45

No new results follow: an excerpt of the list.
gene	reagent	droplet/nuclear area B-score, replicate 1	droplet/nuclear area B-score, replicate 2
Suv3 (Suv3 helicase)	1	-0.979	-0.375
Panx (Panoramix)	1		-1.58
CG15221	1	0.014	0.322
Nph (Nucleophosmin)	1	0.496	-0.225
CG14739	1	-0.0127	-0.653
CR32745 (pseudo)	1	0.294	4.41

Further records follow:
gene	reagent	droplet/nuclear area B-score, replicate 1	droplet/nuclear area B-score, replicate 2
CG3184	1	0.1	-1.43
CG4586	1	1.58	0.665
MED17 (Mediator complex subunit 17)	1	-0.903	-0.215
CG31157	1	0.439	2.66
DIP-epsilon (Dpr-interacting protein epsilon)	1	-0.198	-0.578
DIP-epsilon (Dpr-interacting protein epsilon)	2	-0.455	-2.61
M1BP (Motif 1 Binding Protein)	1	-2.48	1.72
VhaAC39-1 (Vacuolar H[+] ATPase AC39 subunit 1)	1	0.169	
CG16772	1	-1.75	-0.949
Gas41	1	0.0175	0.466
CG42327	1	1.29	1.6
CG42327	2	0.773	1.65
CG42327	3	0.775	-1.13
CG42505 + CG42504 + CG31358	1	3.15	0.0721
CG42505 + CG42504 + CG31358	2	0.674	2.52
CG42505 + CG42504 + CG31358	3	-0.264	0
CG8870	1	1.45	0.86
dob (doppelganger von brummer)	1	-1.21	0.759
KrT95D (Krueppel target at 95D)	1	0.0176	-0.507
CG14380	1	-1.49	-1.06
CG14245	1	1.17	-1.58
CG13563	1	1.2	-0.845
CG9631	1	0.139	-5.51
Cyp317a1 (Cytochrome P450 317a1)	1	0.502	-0.661
CG17343	1	-0.765	-0.737
CG17343	2	0.145	0.173
RpS3 (Ribosomal protein S3)	1	-1.92	2.33
Mps1 (Monopolar spindle 1)	1	-1.96	0.936
Trmt112 (tRNA methyltransferase subunit 11-2)	1	-1.15	-0.673
CG2186	1	1.71	0.00376
CG2930	1	2.19	
CG12862	1	-0.073	-0.45
CG12182	1	-0.198	-3.51
CG7882	1	-0.243	0.0184
dia (diaphanous)	1	0.0721	0.126
CG10631	1	-1.5	-0.0111
CG10068	1	0.528	-2.03
CaMKII (Calcium/calmodulin-dependent protein kinase II)	1	-0.323	-0.00339
Ir87a (Ionotropic receptor 87a)	1	0.852	-0.49
Hgsnat (Heparan-alpha-glucosaminide N-acetyltransferase)	1	-0.925	1.76
Mst33A	1	-0.756	1.9
vvl (ventral veins lacking)	1	-0.916	0.0642
Atg17 (Autophagy-related 17)	1	-0.268	0.214
lin-52	1	0.175	0.494
nAChRbeta2 (nicotinic Acetylcholine Receptor beta2)	1	-1.89	-0.772
scu (scully)	1	0.564	0.117
CG31861	1	-0.45	-1.1
VGAT (Vesicular GABA Transporter)	1	0.053	-1.08
CG4483	1	1.9	2.68
Mon1 (Monensin sensitivity 1)	1	0.376	-1.83
CG13982	1	-0.0096	1.08
CG44085	1	1.07	-0.612
CG44085	2	0.419	-0.0556
Tfb1 (Transcription factor B1)	1	-3.96	-0.0182
feo (fascetto)	1	0.394	0.183
Mnat9 (microtubule-associated Nat9)	1	-0.429	-0.0477
Stt3A	1	-0.145	0.00408
CG14841	1	-0.806	0.48
Nepl8 (Neprilysin-like 8)	1	1.09	-0.436
PGS1 (Phosphatidylglycerophosphate synthase 1)	1	0.566	0.667
Droj2 (DnaJ-like-2)	1	-0.653	11.6
Amt (Ammonium transporter)	1	1.74	0.0147
